Reference: the supplement of paper PMC10849652
This is one part of the list.

Sequences of proteins named here, by UniProt entry; tags and fusion partners are left off. A change or cut given only in a name is not applied to a line headed by its entry.
UniProt Q6ICL3: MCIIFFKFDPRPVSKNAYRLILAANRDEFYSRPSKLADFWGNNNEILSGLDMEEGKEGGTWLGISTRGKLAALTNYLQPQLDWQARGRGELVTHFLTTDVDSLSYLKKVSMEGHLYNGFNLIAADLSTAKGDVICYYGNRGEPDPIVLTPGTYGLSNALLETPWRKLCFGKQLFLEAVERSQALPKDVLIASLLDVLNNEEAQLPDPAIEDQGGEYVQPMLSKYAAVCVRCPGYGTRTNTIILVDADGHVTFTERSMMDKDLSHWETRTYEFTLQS
UniProt O60343: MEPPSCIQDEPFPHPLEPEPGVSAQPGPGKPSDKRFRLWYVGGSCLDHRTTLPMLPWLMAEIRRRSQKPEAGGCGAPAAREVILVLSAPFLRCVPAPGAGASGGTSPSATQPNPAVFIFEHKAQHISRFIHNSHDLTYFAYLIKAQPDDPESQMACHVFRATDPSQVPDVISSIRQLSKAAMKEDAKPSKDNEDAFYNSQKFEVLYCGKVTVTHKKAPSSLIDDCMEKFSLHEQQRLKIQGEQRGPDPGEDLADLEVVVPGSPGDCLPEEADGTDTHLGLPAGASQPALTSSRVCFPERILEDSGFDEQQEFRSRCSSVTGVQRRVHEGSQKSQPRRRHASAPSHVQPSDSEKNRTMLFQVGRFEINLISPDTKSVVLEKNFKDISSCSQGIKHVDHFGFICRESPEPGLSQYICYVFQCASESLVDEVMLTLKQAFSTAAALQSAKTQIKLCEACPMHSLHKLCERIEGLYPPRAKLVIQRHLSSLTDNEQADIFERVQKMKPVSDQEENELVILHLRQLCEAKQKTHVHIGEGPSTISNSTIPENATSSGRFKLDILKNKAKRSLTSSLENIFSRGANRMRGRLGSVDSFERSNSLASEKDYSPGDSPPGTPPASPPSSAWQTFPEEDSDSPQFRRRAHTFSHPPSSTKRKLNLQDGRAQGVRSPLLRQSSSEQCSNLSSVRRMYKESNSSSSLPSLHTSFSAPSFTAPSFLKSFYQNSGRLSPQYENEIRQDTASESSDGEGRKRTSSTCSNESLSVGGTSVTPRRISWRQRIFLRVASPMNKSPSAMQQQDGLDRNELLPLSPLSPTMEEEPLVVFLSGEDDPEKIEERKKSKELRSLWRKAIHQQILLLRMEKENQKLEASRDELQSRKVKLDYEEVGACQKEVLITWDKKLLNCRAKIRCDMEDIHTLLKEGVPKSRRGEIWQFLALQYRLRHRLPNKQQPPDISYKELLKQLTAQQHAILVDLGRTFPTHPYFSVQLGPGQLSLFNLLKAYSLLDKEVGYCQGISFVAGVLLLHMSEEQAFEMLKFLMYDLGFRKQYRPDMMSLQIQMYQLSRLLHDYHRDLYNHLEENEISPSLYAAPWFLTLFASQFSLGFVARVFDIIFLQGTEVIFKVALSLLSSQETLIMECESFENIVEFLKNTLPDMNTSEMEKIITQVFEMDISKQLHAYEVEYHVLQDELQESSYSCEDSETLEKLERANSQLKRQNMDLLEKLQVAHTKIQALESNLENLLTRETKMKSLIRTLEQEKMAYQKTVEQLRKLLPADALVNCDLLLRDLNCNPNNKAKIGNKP
UniProt Q6P1N9: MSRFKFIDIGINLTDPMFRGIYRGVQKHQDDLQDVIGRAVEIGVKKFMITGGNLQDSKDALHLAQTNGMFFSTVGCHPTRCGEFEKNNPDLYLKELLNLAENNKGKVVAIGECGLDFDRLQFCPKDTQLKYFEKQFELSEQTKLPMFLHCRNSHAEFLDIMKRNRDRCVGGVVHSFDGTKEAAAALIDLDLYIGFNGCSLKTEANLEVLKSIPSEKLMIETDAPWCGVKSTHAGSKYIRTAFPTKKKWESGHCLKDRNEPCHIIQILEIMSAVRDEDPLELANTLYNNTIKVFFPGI
UniProt Q16594, whole entry, looked up: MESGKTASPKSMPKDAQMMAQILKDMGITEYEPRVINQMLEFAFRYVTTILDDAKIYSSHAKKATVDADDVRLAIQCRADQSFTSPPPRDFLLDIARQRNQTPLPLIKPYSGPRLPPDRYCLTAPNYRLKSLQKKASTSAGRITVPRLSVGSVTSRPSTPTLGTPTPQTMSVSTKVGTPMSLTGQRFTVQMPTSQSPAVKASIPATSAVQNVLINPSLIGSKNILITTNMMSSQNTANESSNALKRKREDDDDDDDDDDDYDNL
UniProt Q9H7E2: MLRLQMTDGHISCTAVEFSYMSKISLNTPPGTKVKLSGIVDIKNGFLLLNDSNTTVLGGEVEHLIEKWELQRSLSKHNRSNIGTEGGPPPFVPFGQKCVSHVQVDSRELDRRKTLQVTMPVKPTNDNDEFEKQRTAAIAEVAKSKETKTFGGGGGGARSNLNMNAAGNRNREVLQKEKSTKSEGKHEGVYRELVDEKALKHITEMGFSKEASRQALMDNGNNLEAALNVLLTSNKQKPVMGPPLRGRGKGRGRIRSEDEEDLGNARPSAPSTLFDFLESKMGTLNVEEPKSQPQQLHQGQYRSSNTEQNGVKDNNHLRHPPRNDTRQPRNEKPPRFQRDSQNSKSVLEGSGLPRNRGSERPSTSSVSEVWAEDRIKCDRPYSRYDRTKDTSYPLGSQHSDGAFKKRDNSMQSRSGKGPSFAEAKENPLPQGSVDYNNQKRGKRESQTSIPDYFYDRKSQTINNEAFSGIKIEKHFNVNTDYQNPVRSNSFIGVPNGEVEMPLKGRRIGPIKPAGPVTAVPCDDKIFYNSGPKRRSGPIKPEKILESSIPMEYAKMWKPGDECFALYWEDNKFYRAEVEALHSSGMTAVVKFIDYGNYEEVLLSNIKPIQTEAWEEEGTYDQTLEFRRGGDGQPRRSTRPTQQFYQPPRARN
UniProt Q93075: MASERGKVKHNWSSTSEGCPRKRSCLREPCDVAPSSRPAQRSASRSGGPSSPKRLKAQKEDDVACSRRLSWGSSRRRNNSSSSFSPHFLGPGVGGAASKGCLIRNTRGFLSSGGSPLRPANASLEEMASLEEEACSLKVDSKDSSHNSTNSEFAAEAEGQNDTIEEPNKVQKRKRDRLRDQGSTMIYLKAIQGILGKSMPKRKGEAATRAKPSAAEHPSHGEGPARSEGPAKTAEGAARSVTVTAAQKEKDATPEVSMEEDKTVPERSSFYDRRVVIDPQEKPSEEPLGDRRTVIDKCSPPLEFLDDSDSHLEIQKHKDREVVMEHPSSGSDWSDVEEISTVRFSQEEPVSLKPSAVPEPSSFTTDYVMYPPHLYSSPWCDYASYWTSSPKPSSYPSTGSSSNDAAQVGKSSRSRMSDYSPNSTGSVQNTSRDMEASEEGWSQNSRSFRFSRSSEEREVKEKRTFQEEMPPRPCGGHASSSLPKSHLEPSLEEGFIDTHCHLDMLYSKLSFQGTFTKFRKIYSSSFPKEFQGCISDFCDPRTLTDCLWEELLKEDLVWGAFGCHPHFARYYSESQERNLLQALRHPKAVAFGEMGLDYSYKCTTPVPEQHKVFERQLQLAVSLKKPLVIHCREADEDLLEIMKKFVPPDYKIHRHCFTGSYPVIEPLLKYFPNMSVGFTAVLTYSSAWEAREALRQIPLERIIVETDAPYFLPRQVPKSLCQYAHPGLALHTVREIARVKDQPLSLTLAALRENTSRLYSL
UniProt Q9NUY8: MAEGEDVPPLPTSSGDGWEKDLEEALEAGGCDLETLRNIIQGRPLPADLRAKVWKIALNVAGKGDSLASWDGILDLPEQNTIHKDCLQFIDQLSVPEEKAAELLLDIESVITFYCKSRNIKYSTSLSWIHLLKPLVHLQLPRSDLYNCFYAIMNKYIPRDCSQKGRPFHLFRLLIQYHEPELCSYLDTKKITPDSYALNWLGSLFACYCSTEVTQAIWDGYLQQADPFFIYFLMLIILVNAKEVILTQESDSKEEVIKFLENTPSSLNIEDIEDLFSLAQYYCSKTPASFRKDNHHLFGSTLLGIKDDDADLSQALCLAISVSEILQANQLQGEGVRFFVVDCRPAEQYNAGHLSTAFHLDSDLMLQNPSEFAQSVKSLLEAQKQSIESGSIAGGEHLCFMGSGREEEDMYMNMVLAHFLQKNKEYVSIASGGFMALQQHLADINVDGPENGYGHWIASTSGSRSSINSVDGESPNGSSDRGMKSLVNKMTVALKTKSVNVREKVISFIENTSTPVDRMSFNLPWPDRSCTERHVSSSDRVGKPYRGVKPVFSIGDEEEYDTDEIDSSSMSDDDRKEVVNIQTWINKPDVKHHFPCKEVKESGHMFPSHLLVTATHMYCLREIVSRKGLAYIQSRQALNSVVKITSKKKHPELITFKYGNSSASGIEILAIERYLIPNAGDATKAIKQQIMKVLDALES
UniProt Q9H5Q4: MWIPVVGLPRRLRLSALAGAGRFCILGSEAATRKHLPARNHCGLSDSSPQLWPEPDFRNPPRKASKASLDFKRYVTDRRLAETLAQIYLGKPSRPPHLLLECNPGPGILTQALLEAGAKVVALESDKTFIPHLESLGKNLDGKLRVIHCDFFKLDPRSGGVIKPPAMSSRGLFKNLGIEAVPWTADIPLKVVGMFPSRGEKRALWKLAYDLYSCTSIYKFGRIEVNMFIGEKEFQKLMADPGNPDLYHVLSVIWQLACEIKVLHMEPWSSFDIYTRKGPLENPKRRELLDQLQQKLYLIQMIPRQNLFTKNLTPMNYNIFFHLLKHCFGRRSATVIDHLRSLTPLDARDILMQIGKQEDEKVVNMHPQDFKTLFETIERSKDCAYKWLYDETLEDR
UniProt P62380: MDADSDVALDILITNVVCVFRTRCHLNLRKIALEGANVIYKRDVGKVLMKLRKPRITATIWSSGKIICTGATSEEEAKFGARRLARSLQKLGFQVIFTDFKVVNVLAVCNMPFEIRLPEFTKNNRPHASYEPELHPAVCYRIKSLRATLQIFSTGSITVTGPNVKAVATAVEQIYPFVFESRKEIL
UniProt Q13428: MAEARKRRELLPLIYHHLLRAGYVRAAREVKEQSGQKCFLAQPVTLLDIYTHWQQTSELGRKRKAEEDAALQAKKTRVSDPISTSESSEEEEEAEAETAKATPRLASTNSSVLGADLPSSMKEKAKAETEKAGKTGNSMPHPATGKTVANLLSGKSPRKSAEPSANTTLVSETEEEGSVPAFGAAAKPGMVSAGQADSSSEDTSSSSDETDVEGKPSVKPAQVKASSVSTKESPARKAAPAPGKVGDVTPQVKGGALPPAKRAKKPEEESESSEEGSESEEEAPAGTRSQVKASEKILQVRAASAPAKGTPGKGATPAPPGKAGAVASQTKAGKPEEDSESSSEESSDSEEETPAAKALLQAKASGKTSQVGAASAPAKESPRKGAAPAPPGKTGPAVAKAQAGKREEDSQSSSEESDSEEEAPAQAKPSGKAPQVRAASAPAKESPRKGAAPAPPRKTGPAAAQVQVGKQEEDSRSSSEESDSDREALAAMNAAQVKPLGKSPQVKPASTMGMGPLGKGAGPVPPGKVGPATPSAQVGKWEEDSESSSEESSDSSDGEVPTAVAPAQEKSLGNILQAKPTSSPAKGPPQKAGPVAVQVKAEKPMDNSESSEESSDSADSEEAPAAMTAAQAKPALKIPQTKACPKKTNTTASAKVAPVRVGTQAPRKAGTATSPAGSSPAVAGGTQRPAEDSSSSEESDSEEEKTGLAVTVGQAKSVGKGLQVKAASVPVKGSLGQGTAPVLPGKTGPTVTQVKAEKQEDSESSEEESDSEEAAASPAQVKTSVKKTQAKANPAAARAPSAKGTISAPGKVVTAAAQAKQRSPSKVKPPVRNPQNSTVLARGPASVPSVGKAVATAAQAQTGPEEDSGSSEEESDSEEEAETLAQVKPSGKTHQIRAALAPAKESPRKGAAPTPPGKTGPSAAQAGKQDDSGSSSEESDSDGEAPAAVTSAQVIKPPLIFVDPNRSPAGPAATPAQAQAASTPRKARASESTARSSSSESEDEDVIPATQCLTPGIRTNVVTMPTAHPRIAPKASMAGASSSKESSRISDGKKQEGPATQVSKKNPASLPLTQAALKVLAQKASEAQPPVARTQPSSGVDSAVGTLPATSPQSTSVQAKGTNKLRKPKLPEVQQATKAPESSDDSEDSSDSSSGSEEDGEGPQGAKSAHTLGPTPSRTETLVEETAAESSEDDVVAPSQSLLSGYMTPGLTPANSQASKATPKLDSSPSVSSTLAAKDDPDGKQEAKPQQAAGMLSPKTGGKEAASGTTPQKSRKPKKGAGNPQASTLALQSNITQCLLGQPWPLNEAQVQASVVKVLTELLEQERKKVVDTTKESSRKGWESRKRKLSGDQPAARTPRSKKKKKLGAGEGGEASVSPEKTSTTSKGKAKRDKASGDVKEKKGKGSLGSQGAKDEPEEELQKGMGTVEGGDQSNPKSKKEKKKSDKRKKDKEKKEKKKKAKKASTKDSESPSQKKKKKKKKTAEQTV

Tests used:
Assay in all cases: log2 fold change, soluble protein after heating vs DMSO (PISA); higher = thermal stabilisation; K562 lysate, 10 uM; active = over 0.2 and 3.5 SD of the protein, either way, in both replicates (recomputed)
vemurafenib = compound: CCCS(=O)(=O)Nc1ccc(F)c(C(=O)c2c[nH]c3ncc(-c4ccc(Cl)cc4)cc23)c1F [vemurafenib]
How it was run: (§1)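 K562 pellets were dounce-homogenised in PBS pH 7.4 containing 1 mM MgCl2, and the crude extract, at 1 mg/mL protein, was exposed to 10 μM compound for 30 min. Aliquots were heated for 3 min across 48°C-58°C, pooled, brought to 0.5% NP-40 at 4°C and spun at 21,000xg for 90 min, with the supernatant taken as soluble protein. TMTpro 16plex LC-MS/MS with equalised channel sums quantified that protein. Values are log-two fold changes in thermal stability relative to solvent controls, taken from duplicates.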

[1] = compound: CCCS(=O)(=O)Nc1ccc(F)c(C(=O)c2c[nH]c3ncc(Cl)cc23)c1F
How it was run: as §1

barasertib = compound: CCN(CCCOc1ccc2c(Nc3cc(CC(=O)Nc4cccc(F)c4)[nH]n3)ncnc2c1)CCOP(=O)(O)O [barasertib]
How it was run: as §1

[2] = compound: CC[C@@H]1C(=O)N(C)c2cnc(Nc3ccc(C(=O)NC4CCN(C)CC4)cc3OC)nc2N1C1CCCC1
How it was run: as §1

volasertib = compound: CC[C@@H]1C(=O)N(C)c2cnc(Nc3ccc(C(=O)N[C@H]4CC[C@H](N5CCN(CC6CC6)CC5)CC4)cc3OC)nc2N1C(C)C [volasertib]
How it was run: as §1

[3] = compound: CCn1c(C(=O)N(C2CC2)C2CC2)cc2c3c(ncn3C)c(Nc3cc(C)n(C)n3)nc21
How it was run: as §1

[4] = compound: CCn1cc(-c2ccnc3[nH]c(-c4cccc(CN(C)C)c4)cc23)c(-c2ccc(NC(=O)N(C)C)cc2)n1
How it was run: as §1

[5] = compound: CN1CCC(CNc2ccc3ncc(-c4cccc(OC(F)(F)F)c4)n3n2)CC1
How it was run: as §1

saracatinib = compound: CN1CCN(CCOc2cc(OC3CCOCC3)c3c(Nc4c(Cl)ccc5c4OCO5)ncnc3c2)CC1 [saracatinib]
How it was run: as §1

sotrastaurin = compound: CN1CCN(c2nc(C3=C(c4c[nH]c5ccccc45)C(=O)NC3=O)c3ccccc3n2)CC1 [sotrastaurin]
How it was run: as §1

alvocidib = compound: CN1CC[C@H](c2c(O)cc(O)c3c(=O)cc(-c4ccccc4Cl)oc23)[C@H](O)C1 [alvocidib]
How it was run: as §1

Tubastatin A = compound: CN1CCc2c(c3ccccc3n2Cc2ccc(C(=O)NO)cc2)C1 [Tubastatin A]
How it was run: as §1

[6] = compound: CNC(=O)C1=CC=CC=C1NC2=NC(=NC=C2Cl)NC3=C(C=C(C=C3)N4CCOCC4)OC
How it was run: as §1

defactinib = compound: CNC(=O)c1ccc(Nc2ncc(C(F)(F)F)c(NCc3nccnc3N(C)S(C)(=O)=O)n2)cc1 [defactinib]
How it was run: as §1

[7] = compound: CNc1nc(-c2ccc3c(N)n[nH]c3c2)cc(N2C[C@@H](C(=O)NC3CCCCC3)CC[C@H]2C)n1
How it was run: as §1

encorafenib = compound: COC(=O)N[C@@H](C)CNc1nccc(-c2cn(C(C)C)nc2-c2cc(Cl)cc(NS(C)(=O)=O)c2F)n1 [encorafenib]
How it was run: as §1

[8] = compound: COC(=O)[C@H](CCSC)NC(=O)C1=C(C=C(C=C1)NC[C@H](CS)N)C2=CC=CC=C2
How it was run: as §1

alisertib = compound: COc1cc(Nc2ncc3c(n2)-c2ccc(Cl)cc2C(c2c(F)cccc2OC)=NC3)ccc1C(=O)O [alisertib]
How it was run: as §1

[9] = compound: COc1cc2nc(-c3cc(F)ccc3O)nc(N[C@@H]3CNC[C@H]3C(C)(C)O)c2cc1OC
How it was run: as §1

gefitinib = compound: COc1cc2ncnc(Nc3ccc(F)c(Cl)c3)c2cc1OCCCN1CCOCC1 [gefitinib]
How it was run: as §1

Measured: log2 fold change

TANGO2 isoform 4 (UniProt Q6ICL3)
inactive: vemurafenib -0.054 | [1] 0.006 | barasertib -0.093 | [2] -0.061 | volasertib -0.044 | [3] 0.009 | [4] -0.029 | [5] 0.009 | saracatinib 0.007 | sotrastaurin 0.073 | alvocidib -0.053 | Tubastatin A -0.02 | [6] 0.067 | defactinib 0.012 | [7] -0.017 | encorafenib 0.01 | [8] 0.011 | alisertib -0.019 | [9] -0.004 | gefitinib 0

TBC1D4 (UniProt O60343)
inactive: vemurafenib -0.034 | [1] 0.014 | barasertib 0.009 | [2] 0.002 | volasertib -0.019 | [3] 0.042 | [4] -0.089 | [5] 0.054 | saracatinib 0.008 | sotrastaurin 0.027 | alvocidib -0.056 | Tubastatin A -0.01 | [6] 0.007 | defactinib 0.013 | [7] 0.014 | encorafenib -0.01 | [8] 0.003 | alisertib -0.003 | [9] -0.012 | gefitinib 0.016

TATDN1 (UniProt Q6P1N9)
inactive: vemurafenib 0.019 | [1] -0.015 | barasertib -0.019 | [2] 0.025 | volasertib 0.022 | [3] 0.018 | [4] -0.037 | [5] 0.04 | saracatinib -0.015 | sotrastaurin 0.009 | alvocidib -0.018 | Tubastatin A 0.03 | [6] 0.013 | defactinib -0.036 | [7] -0.065 | encorafenib -0.015 | [8] -0.032 | alisertib -0.016 | [9] 0.001 | gefitinib 0.023

TAF9 (UniProt Q16594)
inactive: vemurafenib -0.028 | [1] -0.092 | barasertib -0.001 | [2] -0.031 | volasertib 0.063 | [3] 0.002 | [5] -0.006 | saracatinib 0.056 | sotrastaurin -0.001 | alvocidib 0.032 | Tubastatin A -0.026 | [6] 0.014 | defactinib -0.03 | [7] -0.004 | encorafenib 0.099 | [8] -0.041 | alisertib 0.004 | [9] 0.038 | gefitinib 0.084
active: [4] 0.238

TERF2IP (UniProt Q9NYB0)
active: [4] 0.269
inactive: vemurafenib -0.009 | [1] -0.003 | barasertib -0.006 | [2] 0.075 | volasertib 0.022 | [3] -0.015 | [5] -0.152 | saracatinib -0.003 | sotrastaurin 0.008 | alvocidib 0.087 | Tubastatin A 0.014 | [6] 0.009 | defactinib -0.008 | [7] 0.019 | encorafenib 0 | [8] -0.038 | alisertib -0.015 | [9] 0.011 | gefitinib -0.003

TDRD3 isoform 3 (UniProt Q9H7E2)
inactive: vemurafenib 0.012 | [1] -0.01 | barasertib -0.043 | [2] 0.041 | volasertib -0.054 | [3] 0.137 | [4] 0.164 | [5] -0.078 | saracatinib -0.094 | sotrastaurin 0.014 | alvocidib 0.043 | Tubastatin A -0.08 | [6] 0.025 | defactinib 0.033 | [7] 0.097 | encorafenib -0.006 | [8] -0.029 | alisertib -0.084 | [9] -0.042 | gefitinib 0.297

Taken from the listing (two entries):
TBC1D4 (UniProt O60343)
inactive: vemurafenib -0.034 | [1] 0.014 | barasertib 0.009 | [2] 0.002 | volasertib -0.019 | [3] 0.042 | [4] -0.089 | [5] 0.054 | saracatinib 0.008 | sotrastaurin 0.027 | alvocidib -0.056 | Tubastatin A -0.01 | [6] 0.007 | defactinib 0.013 | [7] 0.014 | encorafenib -0.01 | [8] 0.003 | alisertib -0.003 | [9] -0.012 | gefitinib 0.016

TATDN1 (UniProt Q6P1N9)
inactive: vemurafenib 0.019 | [1] -0.015 | barasertib -0.019 | [2] 0.025 | volasertib 0.022 | [3] 0.018 | [4] -0.037 | [5] 0.04 | saracatinib -0.015 | sotrastaurin 0.009 | alvocidib -0.018 | Tubastatin A 0.03 | [6] 0.013 | defactinib -0.036 | [7] -0.065 | encorafenib -0.015 | [8] -0.032 | alisertib -0.016 | [9] 0.001 | gefitinib 0.023

(list continues)

TAOK1 (UniProt Q7L7X3)
inactive: vemurafenib 0.042 | [1] 0.023 | barasertib -0.01 | [2] 0.086 | volasertib -0.005 | [3] -0.027 | [4] 0.114 | [5] -0.073 | saracatinib 0.001 | sotrastaurin 0.005 | alvocidib -0.018 | Tubastatin A 0.006 | [6] -0.06 | defactinib -0.05 | [7] -0.008 | encorafenib 0.03 | [8] 0.01 | alisertib 0.019 | [9] -0.025 | gefitinib -0.01

TATDN2 (UniProt Q93075)
inactive: vemurafenib -0.065 | [1] -0.019 | barasertib 0.074 | [2] 0.021 | volasertib 0.069 | [3] 0.065 | [4] -0.054 | [5] 0.042 | saracatinib -0.043 | sotrastaurin 0.053 | alvocidib -0.096 | Tubastatin A 0.013 | [6] 0.155 | defactinib -0.021 | [7] 0.054 | encorafenib 0.059 | [8] -0.053 | alisertib -0.031 | [9] -0.097 | gefitinib 0.011

TBC1D23 (UniProt Q9NUY8)
inactive: vemurafenib -0.003 | [1] 0.011 | barasertib 0 | [2] -0.027 | volasertib -0.029 | [3] -0.012 | [4] -0.058 | [5] 0.023 | saracatinib 0.012 | sotrastaurin 0.017 | alvocidib 0 | Tubastatin A -0.076 | [6] 0.025 | defactinib -0.006 | [7] 0.05 | encorafenib -0.009 | [8] -0.019 | alisertib -0.014 | [9] 0.002 | gefitinib -0.006

TFB2M (UniProt Q9H5Q4)
inactive: vemurafenib -0.021 | [1] 0.007 | barasertib 0.013 | [2] -0.166 | volasertib -0.024 | [3] 0.024 | [4] 0.017 | [5] -0.123 | saracatinib -0.005 | sotrastaurin -0.004 | alvocidib 0.026 | Tubastatin A -0.011 | [6] 0.03 | defactinib -0.001 | [7] -0.001 | encorafenib 0.012 | [8] -0.045 | alisertib 0.013 | [9] 0.004 | gefitinib -0.029

TARS2 (UniProt Q9BW92)
inactive: vemurafenib -0.009 | [1] -0.001 | barasertib 0.033 | [2] -0.069 | volasertib -0.055 | [3] 0.035 | [4] 0.038 | [5] -0.056 | saracatinib 0.003 | sotrastaurin 0.001 | alvocidib -0.005 | Tubastatin A -0.099 | [6] -0.008 | defactinib -0.014 | [7] -0.051 | encorafenib 0.016 | [8] 0.136 | alisertib -0.037 | [9] 0.01 | gefitinib 0.156

TBPL1 (UniProt P62380)
inactive: vemurafenib -0.02 | [1] 0.008 | barasertib -0.013 | [2] -0.01 | volasertib -0.036 | [3] -0.082 | [4] -0.076 | [5] 0.08 | saracatinib -0.067 | sotrastaurin 0.019 | alvocidib -0.004 | Tubastatin A -0.003 | [6] 0.048 | defactinib -0.022 | [7] 0.009 | encorafenib -0.075 | [8] 0.031 | alisertib 0.005 | [9] 0.011 | gefitinib -0.021

TCERG1 (UniProt O14776)
inactive: vemurafenib -0.037 | [1] 0.015 | barasertib 0.012 | [2] 0.016 | volasertib -0.02 | [3] 0.03 | [4] -0.052 | [5] 0.044 | saracatinib 0.03 | sotrastaurin -0.019 | alvocidib -0.009 | Tubastatin A -0.005 | [6] -0.005 | defactinib 0.005 | [7] 0.039 | encorafenib 0.001 | [8] 0.026 | alisertib 0.022 | [9] -0.003 | gefitinib -0.008

TBL3 (UniProt Q12788)
inactive: vemurafenib 0.02 | [1] 0.003 | barasertib 0.042 | [2] -0.018 | volasertib -0.006 | [3] 0.004 | [4] -0.005 | [5] -0.012 | saracatinib 0.026 | sotrastaurin 0.009 | alvocidib -0.019 | Tubastatin A -0.08 | [6] 0.014 | defactinib 0.016 | [7] 0.01 | encorafenib -0.021 | [8] 0.072 | alisertib 0.015 | [9] 0.006 | gefitinib -0.123

TCOF1 isoform 4 (UniProt Q13428)
inactive: vemurafenib 0.014 | [1] -0.002 | barasertib 0.003 | [2] 0.052 | volasertib 0.013 | [3] -0.023 | [4] -0.09 | [5] 0.023 | saracatinib 0.011 | sotrastaurin 0.027 | alvocidib -0.029 | Tubastatin A 0.04 | [6] 0.005 | defactinib -0.002 | [7] 0.076 | encorafenib 0.009 | [8] -0.071 | alisertib -0.002 | [9] 0.005 | gefitinib 0.012

TBCC (UniProt Q15814)
inactive: vemurafenib -0.021 | [1] 0.013 | barasertib 0.023 | [2] -0.017 | volasertib -0.027 | [3] -0.021 | [4] -0.005 | [5] 0.026 | saracatinib 0 | sotrastaurin 0.024 | alvocidib -0.02 | Tubastatin A 0.032 | [6] 0.012 | defactinib 0 | [7] -0.016 | encorafenib 0.009 | [8] -0.016 | alisertib -0.032 | [9] 0.01 | gefitinib 0.023
